Reference: PubChem BioAssay AID504774 (Drosophila RNAi Screening Center, 2011)
In all, the deposit lists about 23,000 reagents; below is a random part of those with a known target gene and a result. 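Values are quantile-normalised luminescence on an arbitrary scale; higher means more cells surviving MMS.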 A plus sign joins genes that one reagent is predicted to hit. Not all columns of the deposit are shown.

Screen: 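Knock-downs that shift viability of MMS-exposed cells relative to untreated ones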 (primary screen)
Cells: Drosophila Kc167 cells
Reagent: long dsRNA against Drosophila genes, about 0.25 µg dsRNA per well
Time to read-out: about 6 days: 3 days knock-down, then 3 days with or without MMS
Challenge: methyl methanesulphonate 0.004% (w/v) for 3 days after knock-down
Measurement: 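ATP-dependent luminescence as a measure of live cells in MMS-exposed wells, quantile normalised within each plate, with replicate values also given as a mean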
Reading the numbers: mean viability with MMS and viability with MMS: higher = more surviving cells after MMS

Gene | dsRNA | mean viability with MMS | viability with MMS, replicate 1
Hsc70-5 | DRSC07442 | 3.53e6 | 3.94e6
CG13116 | DRSC02214 | 3.60e6 | 4.17e6
CG13116 | DRSC21945 | 3.46e6 | 3.98e6
CarT | DRSC03196 | 3.33e6 | 3.66e6
CG14949 | DRSC08408 | 3.72e6 | 4.16e6
CG15343 | DRSC18028 | 3.54e6 | 4.08e6
CG14989 | DRSC08448 | 3.49e6 | 4.02e6
Tsen34 + Trl | DRSC10014 | 3.52e6 | 4.03e6
CG12862 | DRSC06202 | 3.55e6 | 4.15e6
Rtca | DRSC18517 | 3.57e6 | 4.12e6
CG4332 | DRSC19890 | 3.47e6 | 4.12e6
CG13771 | DRSC02277 | 3.50e6 | 3.91e6
CG5783 | DRSC02894 | 3.50e6 | 3.93e6
CG15701 | DRSC06572 | 3.46e6 | 3.91e6
CG31826 | DRSC03357 | 3.43e6 | 3.93e6
Nep4 | DRSC15539 | 3.61e6 | 4.06e6
CHMP2B | DRSC10436 | 3.47e6 | 3.96e6
Gfat2 | DRSC14598 | 3.54e6 | 3.96e6
CG9106 | DRSC20154 | 3.69e6 | 4.14e6
orb | DRSC17021 | 2.87e6 | 3.56e6
orb | DRSC23148 | 3.51e6 | 3.92e6
cort | DRSC02148 | 1.74e6 | 3.91e6
ND-B16.6 | DRSC18306 | 3.73e6 | 4.14e6
ND-B16.6 | DRSC22600 | 3.74e6 | 4.19e6
SNF4Agamma | DRSC13461 | 3.57e6 | 4.02e6
SNF4Agamma | DRSC13463 | 3.67e6 | 4.07e6
SNF4Agamma | DRSC15879 | 3.40e6 | 3.87e6
SNF4Agamma | DRSC16847 | 3.64e6 | 4.17e6
